{"source": "paper PMC13389011", "key": {"[1]": {"system": "CPA protein", "assay": "FNBA", "details": "IB: PBS (1.5 mM KH2PO4, 8.1 mM Na2HPO4, 2.7 mM KCl, 137 mM NaCl) + 5 mM MgCl2, pH 7.4, FNBA and BLI r.t., recombinant protein, protein details: His-tag, synthetic backbone"}, "[2]": {"system": "Dog insulin receptor ectodomain (DIR) (dog)", "assay": "MST", "details": "DNA backbone; 7-deaza-7-(indolyl-ethyl)-dA (dAAIn) at 26,32,34,38,41,44,45,48,49,50; 5-(phenyl-ethynyl)-dU (dUEPh) at 21,22,24,27,37,47,54; PBS (1.5 mM KH2PO4, 8.1 mM Na2HPO4, 2.7 mM KCl, 137 mM NaCl) with 5 mM MgCl2, pH 7.4; MST with 0.1% Pluronic F-127 at 25 C; FNBA at room temperature; commercial protein; protein details: His-tag; label: 5'-Cy5; synthetic backbone; letters put together from the description"}, "[3]": {"system": "Human insulin receptor ectodomain (HIR) (Homo sapiens)", "assay": "MST", "details": "DNA backbone; 7-deaza-7-(indolyl-ethyl)-dA (dAAIn) at 26,32,34,38,41,44,45,48,49,50; 5-(phenyl-ethynyl)-dU (dUEPh) at 21,22,24,27,37,47,54; PBS (1.5 mM KH2PO4, 8.1 mM Na2HPO4, 2.7 mM KCl, 137 mM NaCl) with 5 mM MgCl2, pH 7.4; MST with 0.1% Pluronic F-127 at 25 C; FNBA at room temperature; commercial protein; protein details: His-tag; label: 5'-Cy5; synthetic backbone; letters put together from the description"}, "[4]": {"system": "Human insulin receptor isoform A, native (IM-9 cells) (Homo sapiens)", "assay": "competition with 125I-insulin", "details": "HEPES binding buffer, 15 C; phenyl-dU (rigid) and indole-dA (flexible) after nt 20; IB: PBS (1.5 mM KH2PO4, 8.1 mM Na2HPO4, 2.7 mM KCl, 137 mM NaCl) + 5 mM MgCl2, pH 7.4; FNBA and BLI r.t.; protein on the cell surface; label: 5'-Cy5; synthetic backbone"}}, "note": "For at least one entry, the source does not settle the construct or the ends of the probe. For some assays here: Negatives hold for the conditions tested. For some assays here: At least one verdict was read from the data and is not stated in words by the source. For some assays here: Results from cells or extracts need not show a direct contact.", "data": [{"sequence": "CATGACGCTCACTGTATCTCGCGUUUAACGUAACAGCGAUGUCUCUCAUGAUGUC [HIR-6]", "values": [{"measurement": "binding result", "setting": "[1]; after primer nt 1-20 every U = rigidly linked phenyl-dU and every A = flexibly linked indole-dA (nucleotides 1,2), DNA backbone, label: 5'-Cy5 (FNBA, MST), 5'-biotin (SPR, BLI)", "value": "no binding"}]}, {"sequence": "CAACTTCTACCGGTCCATGTUUGUGAUGCCGACAGCUAGCAGCAAGUAAACGGUC [DIR-5]", "values": [{"measurement": "Kd", "setting": "[2]", "value": 19.2, "unit": "nM"}, {"measurement": "Kd", "setting": "[3]", "value": 74.8, "unit": "nM"}]}, {"sequence": "ACTGCACCTGGCCTTTAACTUUUCGCACGCGUUGAAUACUACCAUUGAGUCGUAG [HIR_SC]", "values": [{"measurement": "binding result", "setting": "[4]", "value": "no binding"}]}, {"sequence": "CATGACGCTCACTGTATCTCGCCUUUAACGUAAGAGCGAUGUCUCUCAUGAUGUC [HIR-8]", "values": [{"measurement": "binding result", "setting": "[1]; as HIR-6: phenyl-dU (rigid) and indole-dA (flexible) after nt 20, label: 5'-Cy5", "value": "no binding"}]}]}
